Assay results as given in paper PMC10698143.
No constants are given. Whether binding was seen depends on the method and setting. Binding seen in cells or lysates may run through a third protein. Some binding calls cover weakened binding; strength is not graded here.

Biological target: T1, Macrophage migration inhibitory factor (MIF) (human (endogenous in RCTE)) (UniProt P14174)
T1 sequence: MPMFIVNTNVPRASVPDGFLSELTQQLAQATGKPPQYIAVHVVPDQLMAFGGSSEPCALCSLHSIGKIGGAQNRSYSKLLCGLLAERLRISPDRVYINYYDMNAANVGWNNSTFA
Assay: co-IP; endogenous proteins, RCTE cell lysates; anti-MIF or anti-PIP4K2a antibody on protein A agarose, 4 °C overnight, washed with lysis buffer with additional 300 mM NaCl, Western blot; also after PIP4K2a siRNA (less MIF with 14-3-3ζ) and GFP-PIP4K2a overexpression (more)

B1: phosphatidylinositol-5-phosphate 4-kinase type 2 alpha (PIP4K2a) (enzyme, UniProt P48426 1-406)
chain: MATPGNLGSSVLASKTKTKKKHFVAQKVKLFRASDPLLSVLMWGVNHSINELSHVQIPVMLMPDDFKAYSKIKVDNHLFNKENMPSHFKFKEYCPMVFRNLRERFGIDDQDFQNSLTRSAPLPNDSQARSGARFHTSYDKRYIIKTITSEDVAEMHNILKKYHQYIVECHGITLLPQFLGMYRLNVDGVEIYVIVTRNVFSHRLSVYRKYDLKGSTVAREASDKEKAKELPTLKDNDFINEGQKIYIDDNNKKVFLEKLKKDVEFLAQLKLMDYSLLVGIHDVERAEQEEVECEENDGEEEGESDGTHPVGTPPDSPGNTLNSSPPLAPGEFDPNIDVYGIKCHENSPRKEVYFMAIIDILTHYDAKKKAAHAAKTVKHGAGAEISTVNPEQYSKRFLDFIGHILT
Question: For B1, which binding is on record?
Answer: Its binding is “binds”.
